The experiment concerns the target FLT3 on the cell surface (human leukemia cell lines and patient cells) (human) (UniProt P36888). Put plainly: flow cytometry on MOLM-13 cells, biotinylated antibody at 10 ug/ml and Streptavidin-PE, after 30 min pre-incubation with human FLT3 ligand. Background: Flow cytometry measures light scatter and fluorescence of single cells or particles in a stream.

Sequences of proteins named here, by UniProt entry; tags and fusion partners are left off. A change or cut given only in a name is not applied to a line headed by its entry.
UniProt P36888: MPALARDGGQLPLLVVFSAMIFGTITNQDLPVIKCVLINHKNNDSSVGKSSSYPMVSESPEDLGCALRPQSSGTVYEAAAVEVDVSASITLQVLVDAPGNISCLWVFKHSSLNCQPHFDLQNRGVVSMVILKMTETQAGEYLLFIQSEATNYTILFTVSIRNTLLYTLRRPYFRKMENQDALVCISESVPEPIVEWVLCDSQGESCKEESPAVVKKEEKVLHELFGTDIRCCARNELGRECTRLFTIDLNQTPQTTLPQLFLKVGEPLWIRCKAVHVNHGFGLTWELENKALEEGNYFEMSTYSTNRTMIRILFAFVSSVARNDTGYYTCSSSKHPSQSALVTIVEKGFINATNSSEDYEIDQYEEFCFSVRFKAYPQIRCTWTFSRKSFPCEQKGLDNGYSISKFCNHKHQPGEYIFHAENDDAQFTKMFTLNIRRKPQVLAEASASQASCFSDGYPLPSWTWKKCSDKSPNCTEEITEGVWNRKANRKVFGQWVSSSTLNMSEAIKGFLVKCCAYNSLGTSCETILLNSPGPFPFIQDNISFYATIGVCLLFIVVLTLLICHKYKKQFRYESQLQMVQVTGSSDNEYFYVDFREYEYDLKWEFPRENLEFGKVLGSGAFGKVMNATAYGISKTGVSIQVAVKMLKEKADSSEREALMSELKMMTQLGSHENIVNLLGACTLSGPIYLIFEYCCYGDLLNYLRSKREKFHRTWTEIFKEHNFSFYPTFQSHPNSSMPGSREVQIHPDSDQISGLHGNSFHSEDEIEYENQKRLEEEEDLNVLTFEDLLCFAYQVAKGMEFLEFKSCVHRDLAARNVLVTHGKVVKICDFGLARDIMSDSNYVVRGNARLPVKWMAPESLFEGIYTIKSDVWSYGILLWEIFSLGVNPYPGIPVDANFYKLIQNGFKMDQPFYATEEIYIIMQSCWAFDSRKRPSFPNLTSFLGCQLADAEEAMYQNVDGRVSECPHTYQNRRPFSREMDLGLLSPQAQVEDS

These are yes or no findings as the source states them, for the method shown. Some binding calls cover weakened binding; strength is not graded here.

B1: v62-1b37.1 (antibody, human IgG1, kappa, V domains shown)
VH: EVQLVESGGGVVRPGGSLRLSCAASGFTFDDYGMSWVRQAPGKGLEWVSGINWNGGSTGYADSVKGRFTISRDDAKNSLYLQMNSLRAEDTALYHCARDGYTYGPFDNWGQGTLVTVSS
VL: DIQMTQSPSSLSASVGDRVTITCRASQGIRNDLGWYQQKPGKAPKRLIYAASSLQSGVPSRFSGSGSGTEFTLTISSLQPEDFATYYCLQHNSYPYTFGQGTKLEIKR
Take B1: the binding entry is “binds”.

These data come from US20180037657A1 (AGENSYS, published 2018).
